According to PMC10763615 (RSC Chemical Biology, 2023):
Where a sequence shows no end group, the ends are not given. Strings that start with PEPTIDE1 are HELM notation: dots part the residues, brackets hold end groups and non-standard residues.

Test: general procedure: Fmoc solid-phase peptide synthesis; Fmoc-PAL AM resin (Novabiochem) pre-loaded with GSGSDYKDDDDK-NH2; DIC / Oxyma / collidine
Settings: whole synthesis, analytical HPLC/UPLC
[1] = one disulfide bridge, sequence written open

| Substance | crude HPLC purity [%] | also measured |
| --- | --- | --- |
| PEPTIDE1{[ac].M.C.N.I.I.L.Y.K.I.M.K.N.R.C.G.S.G.S.D.Y.K.D.D.D.D.K.[am]}$PEPTIDE1,PEPTIDE1,3:R3-15:R3$$$V2.0 | 34.38 |  |
| PEPTIDE1{[ac].M.C.Y.T.V.L.W.Y.K.Y.Q.K.K.C.G.S.G.S.E.E.G.S.G.S.D.Y.K.D.D.D.D.K.[am]}$PEPTIDE1,PEPTIDE1,3:R3-15:R3$$$V2.0 | 50.47 |  |
| MCIRWPARQSLFWIC |  | crude HPLC purity [1]: 100% |
| PEPTIDE1{[ac].M.C.K.R.H.I.R.Y.W.Q.L.Y.V.C.G.S.G.S.E.E.G.S.G.S.D.Y.K.D.D.D.D.K.[am]}$PEPTIDE1,PEPTIDE1,3:R3-15:R3$$$V2.0 | 49.40 |  |
| PEPTIDE1{[ac].M.C.I.Y.R.L.S.D.F.W.V.V.C.G.S.G.S.D.Y.K.D.D.D.D.K.[am]}$PEPTIDE1,PEPTIDE1,3:R3-14:R3$$$V2.0 | 62.55 | final HPLC purity: 55.0% |
| PEPTIDE1{[ac].M.C.R.H.L.F.Y.W.K.L.W.H.Q.R.C.G.S.G.S.E.E.G.S.G.S.D.Y.K.D.D.D.D.K.[am]}$PEPTIDE1,PEPTIDE1,3:R3-16:R3$$$V2.0 | 42.58 |  |
| PEPTIDE1{[ac].M.C.V.K.Y.I.K.Y.W.S.V.F.H.C.G.S.G.S.D.Y.K.D.D.D.D.K.[am]}$PEPTIDE1,PEPTIDE1,3:R3-15:R3$$$V2.0 | 54.15 |  |
| PEPTIDE1{[ac].M.C.H.I.T.I.Y.K.I.L.R.Y.C.G.S.G.S.D.Y.K.D.D.D.D.K.[am]}$PEPTIDE1,PEPTIDE1,3:R3-14:R3$$$V2.0 | 42.81 |  |
| PEPTIDE1{[ac].M.C.D.W.Y.V.T.I.Y.K.V.L.K.K.C.G.S.G.S.D.Y.K.D.D.D.D.K.[am]}$PEPTIDE1,PEPTIDE1,3:R3-16:R3$$$V2.0 | 34.72 |  |
| PEPTIDE1{[ac].M.C.L.V.S.I.Y.K.I.M.R.T.C.G.S.G.S.D.Y.K.D.D.D.D.K.[am]}$PEPTIDE1,PEPTIDE1,3:R3-14:R3$$$V2.0 | 71.68 | final HPLC purity: 100.0% |
| PEPTIDE1{M.C.F.R.W.R.L.F.H.H.L.T.P.F.C.G.S.G.S.D.Y.K.D.D.D.D.K.[am]}$PEPTIDE1,PEPTIDE1,2:R3-15:R3$$$V2.0 | 80.99 | final HPLC purity: 53.0% |
| MCDCLHVVCFLVC | 50.76 |  |
| PEPTIDE1{[ac].M.C.T.Y.V.Y.Y.Y.K.L.F.H.R.C.G.S.G.S.D.Y.K.D.D.D.D.K.[am]}$PEPTIDE1,PEPTIDE1,3:R3-15:R3$$$V2.0 | 30.34 |  |
| PEPTIDE1{[ac].M.C.Y.E.I.I.W.Y.K.L.Q.R.V.C.G.S.G.S.D.Y.K.D.D.D.D.K.[am]}$PEPTIDE1,PEPTIDE1,3:R3-15:R3$$$V2.0 | 42.02 |  |
| PEPTIDE1{[ac].M.C.P.Y.D.Y.Y.D.W.H.D.W.R.D.C.G.S.G.S.D.Y.K.D.D.D.D.K.[am]}$PEPTIDE1,PEPTIDE1,3:R3-16:R3$$$V2.0 | 53.42 |  |
| PEPTIDE1{[ac].M.C.T.Y.D.F.V.L.G.H.H.Y.L.I.C.G.S.G.S.D.Y.K.D.D.D.D.K.[am]}$PEPTIDE1,PEPTIDE1,3:R3-16:R3$$$V2.0 | 36.61 |  |
| PEPTIDE1{[ac].M.C.Y.T.R.F.W.T.E.E.W.Q.P.C.G.S.G.S.D.Y.K.D.D.D.D.K.[am]}$PEPTIDE1,PEPTIDE1,3:R3-15:R3$$$V2.0 | 29.58 |  |
| PEPTIDE1{[ac].M.C.K.Y.A.T.L.Q.W.Y.K.W.F.Y.C.G.S.G.S.D.Y.K.D.D.D.D.K.[am]}$PEPTIDE1,PEPTIDE1,3:R3-16:R3$$$V2.0 | 34.92 |  |
| PEPTIDE1{[ac].M.C.A.K.Y.F.L.I.W.R.A.Y.Q.Q.C.G.S.G.S.D.Y.K.D.D.D.D.K.[am]}$PEPTIDE1,PEPTIDE1,3:R3-16:R3$$$V2.0 | 36.14 |  |
| MCVFDSFLPFIIC |  | crude HPLC purity [1]: 82.09% |
| PEPTIDE1{M.C.V.F.D.S.F.L.P.F.V.L.C.G.S.G.S.D.Y.K.D.D.D.D.K.[am]}$PEPTIDE1,PEPTIDE1,2:R3-13:R3$$$V2.0 | 91.39 |  |
| PEPTIDE1{[ac].M.M.S.H.C.W.L.F.K.V.L.L.C.G.S.G.S.D.Y.K.D.D.D.D.K.[am]}$PEPTIDE1,PEPTIDE1,6:R3-14:R3$$$V2.0 | 67.7 |  |
| PEPTIDE1{[ac].M.C.E.V.K.Y.F.L.I.W.K.R.W.C.G.S.G.S.D.Y.K.D.D.D.D.K.[am]}$PEPTIDE1,PEPTIDE1,3:R3-15:R3$$$V2.0 | 33.86 |  |
| PEPTIDE1{[ac].M.C.F.A.L.L.Y.K.I.L.S.R.C.G.S.G.S.D.Y.K.D.D.D.D.K.[am]}$PEPTIDE1,PEPTIDE1,3:R3-14:R3$$$V2.0 | 61.47 |  |
| PEPTIDE1{M.C.L.L.W.T.R.H.F.D.R.Y.W.V.C.G.S.G.S.D.Y.K.D.D.D.D.K.[am]}$PEPTIDE1,PEPTIDE1,2:R3-15:R3$$$V2.0 | 42.79 | final HPLC purity: 61.4% |
| PEPTIDE1{[ac].M.C.I.H.R.L.S.D.F.W.V.V.C.G.S.G.S.D.Y.K.D.D.D.D.K.[am]}$PEPTIDE1,PEPTIDE1,3:R3-14:R3$$$V2.0 | 54.65 |  |
| MCIRWPARQSLFWLC |  | crude HPLC purity (one disulfide bridge, sequence written open, run 1): 61.38%; crude HPLC purity (one disulfide bridge, sequence written open, run 2): 69.82% |

| Substance | crude HPLC purity [%] | also measured |
| --- | --- | --- |
| PEPTIDE1{[ac].M.C.H.I.W.Y.F.N.N.Q.F.H.Y.V.C.G.S.G.S.D.Y.K.D.D.D.D.K.[am]}$PEPTIDE1,PEPTIDE1,3:R3-16:R3$$$V2.0 | 40.00 |  |
| PEPTIDE1{[ac].M.C.Y.K.N.I.D.N.G.V.L.V.F.C.G.S.G.S.D.Y.K.D.D.D.D.K.[am]}$PEPTIDE1,PEPTIDE1,3:R3-15:R3$$$V2.0 | 65.58 |  |
| PEPTIDE1{[ac].M.C.I.L.L.Y.K.V.L.R.G.R.C.G.S.G.S.D.Y.K.D.D.D.D.K.[am]}$PEPTIDE1,PEPTIDE1,3:R3-14:R3$$$V2.0 | 72.16 |  |
| PEPTIDE1{[ac].M.C.K.R.H.L.I.Y.Y.K.I.A.R.C.G.S.G.S.D.Y.K.D.D.D.D.K.[am]}$PEPTIDE1,PEPTIDE1,3:R3-15:R3$$$V2.0 | 68.57 |  |
| PEPTIDE1{[ac].M.C.I.K.T.F.L.L.W.R.S.S.C.G.S.G.S.D.Y.K.D.D.D.D.K.[am]}$PEPTIDE1,PEPTIDE1,3:R3-14:R3$$$V2.0 | 55.56 |  |
| MCHCFPTICWLEC | 73.32 |  |
| MCHYCFNKLFLCC | 0 | final HPLC purity: 91.9% |
| PEPTIDE1{[ac].M.C.H.R.H.L.Y.Y.W.R.L.F.H.S.C.G.S.G.S.E.E.G.S.G.S.D.Y.K.D.D.D.D.K.[am]}$PEPTIDE1,PEPTIDE1,3:R3-16:R3$$$V2.0 | 38.56 |  |
| MCVYDIFVPFIIC |  | crude HPLC purity [1]: 52.63% |
| MCIFDTHMPFIPC |  | crude HPLC purity [1]: 92.48% |
| PEPTIDE1{M.C.I.F.D.I.H.M.P.F.I.P.C.G.S.G.S.D.Y.K.D.D.D.D.K.[am]}$PEPTIDE1,PEPTIDE1,2:R3-13:R3$$$V2.0 | 85.5 | final HPLC purity: 95.7% |
| PEPTIDE1{[ac].M.C.V.W.W.S.H.P.S.I.W.I.C.G.S.G.S.D.Y.K.D.D.D.D.K.[am]}$PEPTIDE1,PEPTIDE1,3:R3-14:R3$$$V2.0 | 31.04 |  |
| PEPTIDE1{[ac].M.C.Y.K.N.I.S.T.G.I.F.L.Y.C.G.S.G.S.D.Y.K.D.D.D.D.K.[am]}$PEPTIDE1,PEPTIDE1,3:R3-15:R3$$$V2.0 | 70.25 |  |
| PEPTIDE1{[ac].M.C.E.D.L.F.Y.Y.L.L.F.H.H.C.G.S.G.S.D.Y.K.D.D.D.D.K.[am]}$PEPTIDE1,PEPTIDE1,3:R3-15:R3$$$V2.0 | 19.38 |  |
| MCVYDLFLPFIYC |  | crude HPLC purity [1]: 67.66% |
| PEPTIDE1{[ac].M.C.E.P.W.I.T.I.Y.K.V.L.K.K.C.G.S.G.S.D.Y.K.D.D.D.D.K.[am]}$PEPTIDE1,PEPTIDE1,3:R3-16:R3$$$V2.0 | 0 | final HPLC purity: 79.9% |
| PEPTIDE1{[ac].M.C.P.R.W.I.Y.Y.Y.M.L.H.C.G.S.G.S.D.Y.K.D.D.D.D.K.[am]}$PEPTIDE1,PEPTIDE1,3:R3-14:R3$$$V2.0 | 69.38 |  |
| PEPTIDE1{[ac].M.C.G.V.L.L.Y.K.V.M.R.V.C.G.S.G.S.D.Y.K.D.D.D.D.K.[am]}$PEPTIDE1,PEPTIDE1,3:R3-14:R3$$$V2.0 | 54.21 |  |
| PEPTIDE1{[ac].M.C.P.K.Y.F.L.L.W.R.L.M.T.C.G.S.G.S.D.Y.K.D.D.D.D.K.[am]}$PEPTIDE1,PEPTIDE1,3:R3-15:R3$$$V2.0 | 75.8 |  |
| PEPTIDE1{[ac].M.C.P.K.W.L.I.K.V.L.L.N.C.G.S.G.S.D.Y.K.D.D.D.D.K.[am]}$PEPTIDE1,PEPTIDE1,3:R3-14:R3$$$V2.0 | 63.09 |  |
| PEPTIDE1{[ac].M.C.Q.Q.W.N.L.Y.T.R.H.W.H.S.C.G.S.G.S.D.Y.K.D.D.D.D.K.[am]}$PEPTIDE1,PEPTIDE1,3:R3-16:R3$$$V2.0 | 75.4 | final HPLC purity: 97.0% |
| MCIWDSFVPFILC |  | crude HPLC purity [1]: 55.83% |
| PEPTIDE1{[ac].M.C.I.Y.R.L.S.D.F.W.A.V.C.G.S.G.S.D.Y.K.D.D.D.D.K.[am]}$PEPTIDE1,PEPTIDE1,3:R3-14:R3$$$V2.0 | 34.87 |  |
| PEPTIDE1{[ac].M.C.F.K.H.P.W.F.F.A.W.L.C.G.S.G.S.D.Y.K.D.D.D.D.K.[am]}$PEPTIDE1,PEPTIDE1,3:R3-14:R3$$$V2.0 | 0 | final HPLC purity: 79.2% |
| MCILHGLIYWAPKQC |  | crude HPLC purity [1]: 30.18% |
| PEPTIDE1{[ac].M.C.R.E.I.R.Y.W.Q.L.Y.R.A.F.C.G.S.G.S.D.Y.K.D.D.D.D.K.[am]}$PEPTIDE1,PEPTIDE1,3:R3-16:R3$$$V2.0 | 19.95 |  |
